The list shows only some results of the screen, not a fair sample: it is rich in T/C values a quarter to a half above the control, in often repeated tests (any T/C) and in doses without a T/C. Other doses and runs of a compound stand elsewhere. T/C is the treated group as % of the vehicle group. Some doses have a count of surviving animals in place of a T/C: the source holds a T/C of zero for them, seemingly a mark for toxic or unscored doses. Some doses without a T/C left all or most animals alive at the check, yet need not have been tolerated: survival well below the control is almost never listed, so the zero probably covers shortened survival too. Counts of survivors are from the toxicity check (mostly the fifth day) where no day follows; animals may have died later. Schedules are NCI's codes, read here as Q, the interval in days (D) or hours (H), X, the number of doses. Brackets with × count equal records among those shown. Some entries were tested several times; their values stand side by side, smallest first. For survival time, the PubChem record calls one and a half times the control and up active, and a quarter to a half above the control has no call in these data; cut-offs in other NCI protocols can differ. Some T/C values are followed by the survivors on the day toxicity was checked, most often the fifth; where none is given, no animal had died by that day.
System: CD2F1 mice, L1210 leukemia ip, survival T/C
Assay: NCI In Vivo Anticancer Drug Screen. Data for tumor model L1210 Leukemia (intraperitoneal) in CD2F1 (CDF1) mice
Settings: higher T/C = longer survival
Summary of the method: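 Antitumor effect is scored in animals hosting a serially transplanted tumor. Values compare compound-dosed animals against vehicle-only controls as a simple quotient.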

[1] = T/C endpoint: mean survival time, dose: 400.0 mg/kg/injection, schedule: Q01DX009 (ip), vehicle: saline with Tween-80
[2] = T/C endpoint: mean survival time, dose: 200.0 mg/kg/injection, schedule: Q04DX003 (ip), vehicle: saline with Tween-80
[3] = T/C endpoint: mean survival time, dose: 400.0 mg/kg/injection, schedule: Q04DX003 (ip), vehicle: saline with Tween-80
[4] = T/C endpoint: mean survival time, dose: 400.0 mg/kg/injection, schedule: Q01DX001 (ip), vehicle: saline with Tween-80
[5] = T/C endpoint: mean survival time, dose: 300.0 mg/kg/injection, schedule: Q01DX001 (ip), vehicle: saline

O=C(O)c1cccc(S(=O)(=O)N(CCO)CCO)c1
survivor count [1]: 5 of 6

[Cl][Fe]([Cl])([Cl])[Cl].c1ccc(-c2cc(-c3ccccc3)[o+]c(-c3ccccc3)c2)cc1
survivor count [2]: 2 of 6 | survivor count [3]: 0 of 6

Cc1ccccc1N1C(=O)CSC1=S
survivor count [1]: 3 of 6

Cc1ccc(NCCNCC(C)(C)O)c2c(=O)c3ccccc3sc12
survivor count (T/C endpoint: mean survival time, dose: 100.0 mg/kg/injection, schedule: Q01DX001 (ip), vehicle: saline): 6 of 6 | survivor count (T/C endpoint: mean survival time, dose: 200.0 mg/kg/injection, schedule: Q01DX001 (ip), vehicle: saline): 4 of 6 | survivor count (T/C endpoint: mean survival time, dose: 400.0 mg/kg/injection, schedule: Q01DX001 (ip), vehicle: saline): 2 of 6

CC1CC(C)(C)NC(C)(C(C)CC(C)(C)C)O1 (configuration not stated)
survivor count [4]: 0 of 6

N/C(=N/N=C/c1cc(Br)cc(Br)c1O)NO
survivor count (T/C endpoint: median survival time, dose: 200.0 mg/kg/injection, schedule: Q01DX005 (ip), vehicle: suspension in saline): 3 of 6

CC(=O)N(C)N=Nc1ccc(C)cc1
T/C (T/C endpoint: mean survival time, dose: 133.0 mg/kg/injection, schedule: Q04DX003 (ip), vehicle: other): 125 % of control | T/C (T/C endpoint: mean survival time, dose: 300.0 mg/kg/injection, schedule: Q04DX003 (ip), vehicle: other): 128 % of control [5 of 6 alive]

CCCCCOc1nccc(N)n1
survivor count (T/C endpoint: mean survival time, dose: 200.0 mg/kg/injection, schedule: Q01DX001 (ip), vehicle: saline with Tween-80): 0 of 6 | survivor count [4]: 0 of 6

Nc1nc([S-])c2[nH]cnc2n1.[Cl-].[Cl-].[H+].[Pd+2].[Pd+2].[Pd+2]
T/C (T/C endpoint: mean survival time, dose: 12.5 mg/kg/injection, schedule: Q04DX003 (ip), vehicle: saline with Tween-80): 142 % of control | T/C (T/C endpoint: mean survival time, dose: 12.5 mg/kg/injection, schedule: Q04DX003 (ip), vehicle: suspension in saline): 149 % of control | T/C (T/C endpoint: mean survival time, dose: 25.0 mg/kg/injection, schedule: Q04DX003 (ip), vehicle: saline with Tween-80): 146 % of control | T/C (T/C endpoint: mean survival time, dose: 25.0 mg/kg/injection, schedule: Q04DX003 (ip), vehicle: suspension in saline): 140 and 149 % of control | T/C (T/C endpoint: mean survival time, dose: 50.0 mg/kg/injection, schedule: Q04DX003 (ip), vehicle: saline with Tween-80): 142 % of control | T/C (T/C endpoint: mean survival time, dose: 100.0 mg/kg/injection, schedule: Q04DX003 (ip), vehicle: saline with Tween-80): 137 % of control | survivor count (T/C endpoint: mean survival time, dose: 200.0 mg/kg/injection, schedule: Q04DX003 (ip), vehicle: suspension in saline): 6 of 6 | survivor count (T/C endpoint: mean survival time, dose: 400.0 mg/kg/injection, schedule: Q04DX003 (ip), vehicle: suspension in saline): 6 of 6

C1N2CN3CN1CN(C2)C3.[Cl][Pt]([Cl])[Cl]
survivor count (T/C endpoint: mean survival time, dose: 100.0 mg/kg/injection, schedule: Q04DX003 (ip), vehicle: distilled water + Tween-80): 5 of 6 | survivor count (T/C endpoint: mean survival time, dose: 200.0 mg/kg/injection, schedule: Q04DX003 (ip), vehicle: distilled water + Tween-80): 1 of 6

O=C(CC[n+]1ccccc1)NCCCCCCNC(=O)CC[n+]1ccccc1
survivor count (T/C endpoint: mean survival time, dose: 75.0 mg/kg/injection, schedule: Q01DX001 (ip), vehicle: saline): 0 of 6 | survivor count (T/C endpoint: mean survival time, dose: 150.0 mg/kg/injection, schedule: Q01DX001 (ip), vehicle: saline): 0 of 6 | survivor count [5]: 0 of 6

CC1(C2CCN(Cc3ccccc3)CC2)OCCO1
survivor count [5]: 1 of 6

Cc1ccccc1N1CCN(c2ccccc2C)C1=C1N(c2ccccc2C)CCN1c1ccccc1C
survivor count (T/C endpoint: mean survival time, dose: 0.39 mg/kg/injection, schedule: Q01DX009 (ip), vehicle: DMSO): 2 of 3 | survivor count (T/C endpoint: mean survival time, dose: 0.78 mg/kg/injection, schedule: Q01DX009 (ip), vehicle: DMSO): 1 of 2 | survivor count (T/C endpoint: mean survival time, dose: 1.56 mg/kg/injection, schedule: Q01DX009 (ip), vehicle: DMSO): 2 of 3 | survivor count (T/C endpoint: mean survival time, dose: 3.12 mg/kg/injection, schedule: Q01DX009 (ip), vehicle: DMSO): 0 of 3 | survivor count (T/C endpoint: mean survival time, dose: 6.25 mg/kg/injection, schedule: Q01DX009 (ip), vehicle: DMSO): 0 of 3 | survivor count (T/C endpoint: mean survival time, dose: 12.5 mg/kg/injection, schedule: Q01DX009 (ip), vehicle: DMSO): 0 of 3 | survivor count (T/C endpoint: mean survival time, dose: 25.0 mg/kg/injection, schedule: Q01DX009 (ip), vehicle: DMSO): 0 of 3 | survivor count (T/C endpoint: mean survival time, dose: 50.0 mg/kg/injection, schedule: Q01DX009 (ip), vehicle: DMSO): 0 of 3

CCn1cnccc1=O
T/C (T/C endpoint: mean survival time, dose: 400.0 mg/kg/injection, schedule: Q04DX002 (ip), vehicle: saline): 132 % of control [2 of 3 alive]

Nc1ncnc2c1ncn2C1OC(CO)C2NP(=O)(N(CCCl)CCCl)OC21 (configuration not stated)
survivor count (T/C endpoint: mean survival time, dose: 125.0 mg/kg/injection, schedule: Q01DX001 (ip), vehicle: distilled water + Tween-80): 2 of 6 and 3 of 6 | survivor count (T/C endpoint: mean survival time, dose: 250.0 mg/kg/injection, schedule: Q01DX001 (ip), vehicle: distilled water + Tween-80): 0 of 6 (2×) | survivor count (T/C endpoint: mean survival time, dose: 500.0 mg/kg/injection, schedule: Q01DX001 (ip), vehicle: distilled water + Tween-80): 0 of 6 (2×)

NC1=NC(=O)CC(=O)N1
survivor count [4]: 1 of 6

Cc1cc([N+](=O)[O-])ccc1P(=O)(O)O
survivor count (T/C endpoint: mean survival time, dose: 100.0 mg/kg/injection, schedule: Q01DX009 (ip), vehicle: saline): 5 of 6 | survivor count (T/C endpoint: mean survival time, dose: 200.0 mg/kg/injection, schedule: Q01DX009 (ip), vehicle: saline): 2 of 6

N=c1ccn(C2OC(CO)C(O)C2O)c(=O)n1O (configuration not stated)
T/C (T/C endpoint: mean survival time, dose: 32.0 mg/kg/injection, schedule: Q01DX008 (oral), vehicle: saline): 125 % of control | T/C (T/C endpoint: mean survival time, dose: 64.0 mg/kg/injection, schedule: Q01DX008 (oral), vehicle: saline): 145 % of control | T/C (T/C endpoint: mean survival time, dose: 128.0 mg/kg/injection, schedule: Q01DX009 (oral), vehicle: saline): 126 % of control | T/C (T/C endpoint: mean survival time, dose: 128.0 mg/kg/injection, schedule: Q04DX003 (ip), vehicle: saline): 125 % of control | T/C (T/C endpoint: mean survival time, dose: 256.0 mg/kg/injection, schedule: Q01DX009 (oral), vehicle: saline): 131 % of control | T/C (T/C endpoint: mean survival time, dose: 256.0 mg/kg/injection, schedule: Q04DX003 (ip), vehicle: saline): 133 % of control | T/C (T/C endpoint: mean survival time, dose: 512.0 mg/kg/injection, schedule: Q04DX003 (oral), vehicle: saline): 135 % of control

Cn1c(=S)sc2ccccc21
survivor count (T/C endpoint: mean survival time, dose: 100.0 mg/kg/injection, schedule: Q04DX003 (ip), vehicle: Klucel (hydroxypropylcellulose) (HPC)): 1 of 3 | survivor count [2]: 0 of 3 | survivor count [3]: 0 of 3

Nc1cc(S(=O)(=O)O)c2cccnc2c1O
survivor count (T/C endpoint: mean survival time, dose: 400.0 mg/kg/injection, schedule: Q04DX003 (ip), vehicle: saline): 3 of 6

CCCCCCCCCCCCCCCC(=O)Oc1ccc(/C(CC)=C(/CC)c2ccc(OC(=O)CCCCCCCCCCCCCCC)cc2)cc1
survivor count (T/C endpoint: mean survival time, dose: 25.0 mg/kg/injection, schedule: Q01DX009 (ip), vehicle: saline with Tween-80): 6 of 6 | survivor count (T/C endpoint: mean survival time, dose: 50.0 mg/kg/injection, schedule: Q01DX009 (ip), vehicle: saline with Tween-80): 6 of 6

CCN(CC)CC#CCCCCN(CC)CC
survivor count [2]: 2 of 6 | survivor count [3]: 0 of 6

COc1ccccc1-n1c(O)c(N=Nc2ccccc2)c(=O)n(-c2ccccc2)c1=S
survivor count (T/C endpoint: mean survival time, dose: 200.0 mg/kg/injection, schedule: Q04DX003 (ip), vehicle: acetone): 5 of 6 | survivor count (T/C endpoint: mean survival time, dose: 400.0 mg/kg/injection, schedule: Q04DX003 (ip), vehicle: acetone): 1 of 6

Nc1ncc(C2OC(CO)C(O)C2O)c(=O)[nH]1 (configuration not stated)
T/C (T/C endpoint: median survival time, dose: 16.0 mg/kg/injection, schedule: Q01DX005 (ip), vehicle: saline, evaluated on day 30): 132 % of control | T/C (T/C endpoint: median survival time, dose: 16.0 mg/kg/injection, schedule: Q01DX005 (ip), vehicle: saline, evaluated on day 45): 136 % of control | T/C (T/C endpoint: median survival time, dose: 32.0 mg/kg/injection, schedule: Q01DX005 (ip), vehicle: saline, evaluated on day 30): 134 % of control | T/C (T/C endpoint: median survival time, dose: 32.0 mg/kg/injection, schedule: Q01DX005 (ip), vehicle: saline, evaluated on day 45): 148 % of control | T/C (T/C endpoint: median survival time, dose: 64.0 mg/kg/injection, schedule: Q01DX005 (ip), vehicle: saline): 145 % of control | survivor count (T/C endpoint: median survival time, dose: 256.0 mg/kg/injection, schedule: Q01DX005 (ip), vehicle: saline): 4 of 6 | survivor count (T/C endpoint: median survival time, dose: 512.0 mg/kg/injection, schedule: Q01DX005 (ip), vehicle: saline): 0 of 6

COc1ccc([Si](C)(C)CNCCSS(=O)(=O)O)cc1
survivor count [3]: 4 of 6

From PubChem BioAssay AID256 (DTP/NCI, 2004)
